Screening data

The results are deposited in PubChem (AID504749; NCATS, 2011).

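Malaria parasite (P. falciparum) lines kept in red blood cells; parasite DNA is measured by SYBR Green fluorescence after lysis, 72 h after compound addition.
Each compound was titrated across a series from about 0.000037 to 29 µM.
The number is the fitted AC50, the concentration giving a half-maximal change in signal; a lower value means higher potency, whether the curve shows a decrease or an increase.
Calls follow the curve class and fit quality: every row here is inconclusive, covering signal-raising curves and weak, poorly fitted, partial or highest-dose-only inhibition curves.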

Values are in µM.
All entries here are filed as inconclusive.
These entries are mostly ones the record files as inconclusive; other results of the assay are not listed here.
A potency from a partial, single-point or poor curve is only a rough figure.
The first word of each remark tells which way the curve ran; it can be opposite to the aim of the assay.

SMILES | condition | potency (µM) | curve
CCCCCCCCCCCCCCCC[N+](C)(C)CCN(Cc1ccc(OC)cc1)c1ncccn1 | Dd2 | 1.585 | inhibitor, single point
CCCCCCCCCCCCCCCC[N+](C)(C)CCN(Cc1ccc(OC)cc1)c1ncccn1 | parasite line B | 1.585 | inhibitor, single point
CCCCCCCCCCCCCCCC[N+](C)(C)CCN(Cc1ccc(OC)cc1)c1ncccn1 | CP269 | 7.208 | inhibitor, single point
CCCCCCCCCCCCCCCC[N+](C)(C)CCN(Cc1ccc(OC)cc1)c1ncccn1 | CP237 | 10 | inhibitor, single point
CCCCCCCCCCCCCCCC[N+](C)(C)CCN(Cc1ccc(OC)cc1)c1ncccn1 | CP260 | 10 | inhibitor, single point
CCCCCCCCCCCCCCCC[N+](C)(C)CCN(Cc1ccc(OC)cc1)c1ncccn1 | GB4 | 5.103 | inhibitor, partial curve
CCCCCCCCCCCCCCCC[N+](C)(C)CCN(Cc1ccc(OC)cc1)c1ncccn1 | CP291 | 5.103 | inhibitor, single point
CCCCCCCCCCCCCCCC[N+](C)(C)CCN(Cc1ccc(OC)cc1)c1ncccn1 | AS120 | 1.585 | inhibitor, single point
CCCCCCCCCCCCCCCC[N+](C)(C)CCN(Cc1ccc(OC)cc1)c1ncccn1 | CP185 | 4.467 | inhibitor, single point
CCCCCCCCCCCCCCCC[N+](C)(C)CCN(Cc1ccc(OC)cc1)c1ncccn1 | CP266 | 0.2557 | inhibitor, full curve, poor fit
CCCCCCCCCCCCCCCC[N+](C)(C)CCN(Cc1ccc(OC)cc1)c1ncccn1 | TAB165 | 1.585 | inhibitor, single point
CCCCCCCCCCCCCCCC[N+](C)(C)CCN(Cc1ccc(OC)cc1)c1ncccn1 | ICS | 10 | inhibitor, single point
CCCCCCCCCCCCCCCC[N+](C)(C)CCN(Cc1ccc(OC)cc1)c1ncccn1 | CP325 | 6.424 | inhibitor, single point
CCCCCCCCCCCCCCCC[N+](C)(C)CCN(Cc1ccc(OC)cc1)c1ncccn1 | N140 | 1.585 | inhibitor, single point
CCCCCCCCCCCCCCCC[N+](C)(C)CCN(Cc1ccc(OC)cc1)c1ncccn1 | AA1029 | 7.08 | inhibitor, single point
CCCCCCCCCCCC(=O)[O][Sn]([CH2]CCC)([CH2]CCC)[O]C(=O)CCCCCCCCCCC | ICS | 17.78 | inhibitor, single point
CCCCCCCCCCCC(=O)[O][Sn]([CH2]CCC)([CH2]CCC)[O]C(=O)CCCCCCCCCCC | PC26 | 0.0005 | activator
CCCCCCCCCCCC(=O)[O][Sn]([CH2]CCC)([CH2]CCC)[O]C(=O)CCCCCCCCCCC | CP286 | 17.78 | inhibitor, single point
Oc1ccc(C(O)CNCCCCCCNCC(O)c2ccc(O)c(O)c2)cc1O (stereo not shown) | CP252 | 17.78 | inhibitor, single point
Oc1ccc(C(O)CNCCCCCCNCC(O)c2ccc(O)c(O)c2)cc1O (stereo not shown) | HB3 | 17.78 | inhibitor, single point
Oc1ccc(C(O)CNCCCCCCNCC(O)c2ccc(O)c(O)c2)cc1O (stereo not shown) | CP217 | 17.78 | inhibitor, single point
Oc1ccc(C(O)CNCCCCCCNCC(O)c2ccc(O)c(O)c2)cc1O (stereo not shown) | CP237 | 12.59 | inhibitor, single point
Oc1ccc(C(O)CNCCCCCCNCC(O)c2ccc(O)c(O)c2)cc1O (stereo not shown) | CP266 | 19.01 | inhibitor, single point
Oc1ccc(C(O)CNCCCCCCNCC(O)c2ccc(O)c(O)c2)cc1O (stereo not shown) | CP315 | 16.94 | inhibitor, single point
Oc1ccc(C(O)CNCCCCCCNCC(O)c2ccc(O)c(O)c2)cc1O (stereo not shown) | ATS189 | 11.22 | inhibitor, single point
Oc1ccc(C(O)CNCCCCCCNCC(O)c2ccc(O)c(O)c2)cc1O (stereo not shown) | ECU | 19.95 | inhibitor, single point
Oc1ccc(C(O)CNCCCCCCNCC(O)c2ccc(O)c(O)c2)cc1O (stereo not shown) | DIV30 | 19.01 | inhibitor, single point
Oc1ccc(C(O)CNCCCCCCNCC(O)c2ccc(O)c(O)c2)cc1O (stereo not shown) | CP269 | 16.94 | inhibitor, single point
Oc1ccc(C(O)CNCCCCCCNCC(O)c2ccc(O)c(O)c2)cc1O (stereo not shown) | CP268 | 19.01 | inhibitor, single point
Oc1ccc(C(O)CNCCCCCCNCC(O)c2ccc(O)c(O)c2)cc1O (stereo not shown) | CP203 | 19.01 | inhibitor, single point
Oc1ccc(C(O)CNCCCCCCNCC(O)c2ccc(O)c(O)c2)cc1O (stereo not shown) | AA1029 | 11.22 | inhibitor, single point
Oc1ccc(C(O)CNCCCCCCNCC(O)c2ccc(O)c(O)c2)cc1O (stereo not shown) | PC15 | 10 | inhibitor, single point